These results are taken from paper PMC5833739.

Amino acid sequences for entries named in this document (tags omitted).
UniProt Q14790: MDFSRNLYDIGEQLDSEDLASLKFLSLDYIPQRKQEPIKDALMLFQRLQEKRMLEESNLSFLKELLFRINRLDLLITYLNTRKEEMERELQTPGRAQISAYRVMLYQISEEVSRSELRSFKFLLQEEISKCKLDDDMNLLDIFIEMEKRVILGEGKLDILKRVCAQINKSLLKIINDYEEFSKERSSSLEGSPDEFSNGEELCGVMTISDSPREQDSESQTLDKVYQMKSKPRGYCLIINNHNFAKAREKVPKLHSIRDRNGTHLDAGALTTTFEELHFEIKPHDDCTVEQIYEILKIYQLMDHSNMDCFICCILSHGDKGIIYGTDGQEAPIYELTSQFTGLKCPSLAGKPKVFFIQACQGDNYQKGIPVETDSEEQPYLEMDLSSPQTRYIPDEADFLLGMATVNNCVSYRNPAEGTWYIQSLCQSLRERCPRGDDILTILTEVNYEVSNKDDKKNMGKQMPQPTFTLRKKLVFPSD

Assay [1] has as its target T1, RFXANK-myc-FLAG (human) (UniProt O14593).
T1 sequence: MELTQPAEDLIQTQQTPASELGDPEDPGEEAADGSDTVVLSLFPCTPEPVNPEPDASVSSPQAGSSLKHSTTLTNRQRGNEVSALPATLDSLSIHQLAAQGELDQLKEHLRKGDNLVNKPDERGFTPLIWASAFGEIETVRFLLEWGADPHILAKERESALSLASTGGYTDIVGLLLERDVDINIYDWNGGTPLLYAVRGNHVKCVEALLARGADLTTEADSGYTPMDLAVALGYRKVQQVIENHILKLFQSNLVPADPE
Description: co-IP; HEK293T lysates after transfection; capture on anti-RFXANK-coated Dynabeads Protein G overnight at 4 °C; lysis buffer 30 mM Tris-HCl pH 7.5, 120 mM NaCl, 1% glycerol, 0.5% NP-40; Western blot.

The target in assay [2] is T1, RFXANK-myc-FLAG (human). Described as above. The source holds these as a separate data set.
Assay [3] concerns the target T2, endogenous RFXANK (OCI-AML2) (human (endogenous in OCI-AML2)) (UniProt O14593).
T2 sequence: T1 sequence
Description: co-IP; endogenous proteins of OCI-AML2 cells fractionated with 0.01% digitonin (cytosolic and nuclear fractions); capture with anti-RFXANK antibody; Western blot. For orientation: A western blot detects proteins with antibodies after separation by electrophoresis.

Read-outs that look alike come from different tables or passages of the source. No constants are given. Whether binding was seen depends on the method and setting. Binding seen in cells or lysates may run through a third protein. Some binding calls cover weakened binding; strength is not graded here. For part of these data: Tags and fused reporters may be left off the sequences shown.

On to “caspase-8 (HEK293T) (from UniProt Q14790 1-479) (enzyme)”, for which, in the assay with RFXANK-myc-FLAG (human) [1], the binding entry is listed as “no binding”.

B1: endogenous full-length caspase-2 (HEK293T) (enzyme, UniProt P42575 1-452)
chain: MAAPSAGSWSTFQHKELMAADRGRRILGVCGMHPHHQETLKKNRVVLAKQLLLSELLEHLLEKDIITLEMRELIQAKVGSFSQNVELLNLLPKRGPQAFDAFCEALRETKQGHLEDMLLTTLSGLQHVLPPLSCDYDLSLPFPVCESCPLYKKLRLSTDTVEHSLDNKDGPVCLQVKPCTPEFYQTHFQLAYRLQSRPRGLALVLSNVHFTGEKELEFRSGGDVDHSTLVTLFKLLGYDVHVLCDQTAQEMQEKLQNFAQLPAHRVTDSCIVALLSHGVEGAIYGVDGKLLQLQEVFQLFDNANCPSLQNKPKMFFIQACRGDETDRGVDQQDGKNHAGSPGCEESDAGKEKLPKMRLPTRSDMICGYACLKGTAAMRNTKRGSWYIEALAQVFSERACDMHVADMLVKVNALIKDREGYAPGTEFHRCKEMSEYCSTLCRHLYLFPGHPPT
For B1, the binding result with RFXANK-myc-FLAG (human) [2] is “binds weakly”.

B2: endogenous caspase-2 (OCI-AML2) (enzyme, UniProt P42575 1-452)
chain: B1 chain
Consider B2, for which, in assay [3], the binding result is given as “binds”.
